The assay addresses T1, aromatase (Homo sapiens, UniProt P11511).
T1 construct: Intact monolayers of JEG3 cells (2.5×10^6 cells) in triplicate 25 cm^2 tissue culture flasks; host or cells: JEG3 choriocarcinoma cells
T1 sequence (P11511 1-503): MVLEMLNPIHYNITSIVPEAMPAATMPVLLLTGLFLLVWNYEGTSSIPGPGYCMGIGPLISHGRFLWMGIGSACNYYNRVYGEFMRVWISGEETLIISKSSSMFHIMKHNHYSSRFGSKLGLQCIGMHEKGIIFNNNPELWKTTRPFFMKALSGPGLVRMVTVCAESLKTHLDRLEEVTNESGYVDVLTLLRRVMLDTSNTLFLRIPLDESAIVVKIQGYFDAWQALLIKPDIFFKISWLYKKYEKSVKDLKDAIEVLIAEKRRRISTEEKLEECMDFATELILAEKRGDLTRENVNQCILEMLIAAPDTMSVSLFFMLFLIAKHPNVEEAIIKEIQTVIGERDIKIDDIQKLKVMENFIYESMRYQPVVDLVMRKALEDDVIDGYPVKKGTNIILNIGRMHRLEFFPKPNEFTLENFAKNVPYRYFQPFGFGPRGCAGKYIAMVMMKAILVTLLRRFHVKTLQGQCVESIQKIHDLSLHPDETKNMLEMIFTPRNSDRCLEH
Nature of the assay: Aromatase activity in JEG3 choriocarcinoma cells (Protocol 6). The format is cell-based.

In patent publication US7763642B2 (Sterix Ltd., priority 2004, dated 2010) one finds IC50 data, which are given here for one molecule.

As to `CC(C)(C#N)c1cc(Cn2cncn2)cc(C(C)(C)C#N)c1` [Anastrozole, 2-[3-(Cyano-dimethyl-methyl)-5-[1,2,4]triazol-1-ylmethyl-phenyl]-2-methyl-propionitrile, reference compound], the IC50 stood at 1.5 nM.

In general, IC50 refers to the concentration at which inhibition is half-maximal. A higher IC50 goes with weaker potency.
